From patent publication US20140120543A1
Results are given in words; binding and its absence hold for the method and conditions named. Binding seen in cells or lysates may run through a third protein. Some binding calls cover weakened binding; strength is not graded here.

Protein sequences, listed by entry. Tags and fused reporters are not part of them. Lines headed by an entry give the natural chain unless they say otherwise; changes in a name come on top.
UniProt Q8IY92: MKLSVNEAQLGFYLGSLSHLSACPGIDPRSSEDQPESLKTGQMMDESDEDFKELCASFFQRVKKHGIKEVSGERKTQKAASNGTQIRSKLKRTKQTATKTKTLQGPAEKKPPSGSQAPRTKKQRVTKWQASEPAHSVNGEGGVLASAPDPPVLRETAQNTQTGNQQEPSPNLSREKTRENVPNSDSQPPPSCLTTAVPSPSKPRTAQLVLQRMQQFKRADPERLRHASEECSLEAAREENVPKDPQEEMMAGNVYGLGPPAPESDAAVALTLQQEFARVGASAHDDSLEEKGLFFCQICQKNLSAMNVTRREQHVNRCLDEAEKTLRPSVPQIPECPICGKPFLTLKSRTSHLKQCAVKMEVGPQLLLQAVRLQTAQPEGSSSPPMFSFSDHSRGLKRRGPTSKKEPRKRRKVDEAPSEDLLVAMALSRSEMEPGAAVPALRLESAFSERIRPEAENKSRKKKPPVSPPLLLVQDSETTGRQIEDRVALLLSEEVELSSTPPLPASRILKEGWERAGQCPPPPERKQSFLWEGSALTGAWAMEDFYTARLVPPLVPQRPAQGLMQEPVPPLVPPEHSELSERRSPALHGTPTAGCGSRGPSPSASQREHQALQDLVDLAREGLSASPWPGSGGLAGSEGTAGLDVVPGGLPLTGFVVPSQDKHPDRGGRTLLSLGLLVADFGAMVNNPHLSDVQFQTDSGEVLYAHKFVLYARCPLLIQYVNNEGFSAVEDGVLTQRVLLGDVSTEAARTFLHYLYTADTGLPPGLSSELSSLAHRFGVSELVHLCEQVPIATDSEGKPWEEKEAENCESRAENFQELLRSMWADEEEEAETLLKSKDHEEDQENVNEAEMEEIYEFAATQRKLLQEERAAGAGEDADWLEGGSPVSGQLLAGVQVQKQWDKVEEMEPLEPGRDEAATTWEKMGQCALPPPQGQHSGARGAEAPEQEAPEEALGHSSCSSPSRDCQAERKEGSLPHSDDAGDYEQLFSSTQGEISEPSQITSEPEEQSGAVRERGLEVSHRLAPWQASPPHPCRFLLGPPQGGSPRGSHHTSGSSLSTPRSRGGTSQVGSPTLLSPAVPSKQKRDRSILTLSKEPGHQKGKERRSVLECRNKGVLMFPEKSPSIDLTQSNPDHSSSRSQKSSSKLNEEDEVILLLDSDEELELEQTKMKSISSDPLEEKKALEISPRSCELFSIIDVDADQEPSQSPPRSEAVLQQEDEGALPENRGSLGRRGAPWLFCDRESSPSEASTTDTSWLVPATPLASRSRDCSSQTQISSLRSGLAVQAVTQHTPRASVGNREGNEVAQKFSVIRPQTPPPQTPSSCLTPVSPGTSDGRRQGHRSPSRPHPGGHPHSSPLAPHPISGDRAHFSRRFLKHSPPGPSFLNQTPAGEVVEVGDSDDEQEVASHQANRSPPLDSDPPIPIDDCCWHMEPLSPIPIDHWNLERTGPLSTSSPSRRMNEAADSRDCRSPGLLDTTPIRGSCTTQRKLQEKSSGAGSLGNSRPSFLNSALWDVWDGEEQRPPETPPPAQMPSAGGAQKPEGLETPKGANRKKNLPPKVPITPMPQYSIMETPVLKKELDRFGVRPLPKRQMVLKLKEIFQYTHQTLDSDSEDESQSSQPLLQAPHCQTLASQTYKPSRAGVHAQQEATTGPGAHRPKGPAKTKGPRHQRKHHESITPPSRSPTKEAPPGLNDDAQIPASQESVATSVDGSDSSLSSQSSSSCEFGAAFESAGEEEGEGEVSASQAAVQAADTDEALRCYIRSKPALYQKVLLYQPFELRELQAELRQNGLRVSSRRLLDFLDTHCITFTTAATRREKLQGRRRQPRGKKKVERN
UniProt P43246: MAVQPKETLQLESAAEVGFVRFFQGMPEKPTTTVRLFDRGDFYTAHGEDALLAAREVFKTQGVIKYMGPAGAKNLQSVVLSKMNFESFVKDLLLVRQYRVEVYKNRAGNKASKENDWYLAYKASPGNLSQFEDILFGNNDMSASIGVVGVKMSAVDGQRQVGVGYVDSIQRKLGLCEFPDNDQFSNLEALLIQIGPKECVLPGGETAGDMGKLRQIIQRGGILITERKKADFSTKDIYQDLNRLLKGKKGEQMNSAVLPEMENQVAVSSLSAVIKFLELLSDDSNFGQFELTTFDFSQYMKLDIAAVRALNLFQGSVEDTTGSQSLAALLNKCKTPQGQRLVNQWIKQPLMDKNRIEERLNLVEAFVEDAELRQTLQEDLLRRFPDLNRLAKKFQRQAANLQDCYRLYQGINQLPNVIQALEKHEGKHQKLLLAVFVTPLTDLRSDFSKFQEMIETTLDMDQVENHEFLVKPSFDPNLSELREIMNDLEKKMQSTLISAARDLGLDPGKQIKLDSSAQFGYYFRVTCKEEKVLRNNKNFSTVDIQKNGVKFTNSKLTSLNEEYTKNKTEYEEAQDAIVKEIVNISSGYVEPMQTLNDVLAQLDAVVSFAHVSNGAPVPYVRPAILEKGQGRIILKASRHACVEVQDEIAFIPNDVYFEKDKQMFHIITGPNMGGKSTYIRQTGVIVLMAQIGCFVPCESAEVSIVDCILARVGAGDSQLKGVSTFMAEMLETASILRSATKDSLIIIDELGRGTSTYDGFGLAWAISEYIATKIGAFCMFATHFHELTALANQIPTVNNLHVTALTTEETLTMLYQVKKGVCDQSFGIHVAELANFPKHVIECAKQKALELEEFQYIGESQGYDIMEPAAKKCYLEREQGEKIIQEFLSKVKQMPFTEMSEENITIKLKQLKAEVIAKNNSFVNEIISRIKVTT

Legend:
[1] = molecular target: SLX4 protein (human) (UniProt Q8IY92); assay: proximity ligation assay (Duolink) in A549 cells
[2] = molecular target: DNA mismatch repair protein MSH2 (MutS protein homolog 2) (human) (UniProt P43246); assay: proximity ligation assay (Duolink) in A549 cells
[3] = molecular target: SLX4 protein (human) (UniProt Q8IY92); assay: proximity ligation assay (Duolink), ERCC1 detected with FL297 antibody
[4] = molecular target: DNA mismatch repair protein MSH2 (MutS protein homolog 2) (human) (UniProt P43246); assay: as above

Measured: binding

B1: ERCC1-202 isoform (isoform 202 of the ERCC1 protein) (protein)
chain: MDPGKDKEGVPQPSGPPARKKFVIPLDEDEVPPGVAKPLFRSTQSLPTVDTSAQAAPQTYAEYAISQPLEGAGATCPTGSEPLAGETPNQALKPGAKSNSIIVSPRQRGNPVLKFVRNVPWEFGDVIPDYVLGQSTCALFLSLRYHNLHPDYIHGRLQSLGKNFALRVLLVQVDVKDPQQALKELAKMCILADCTLILAWSPEEAGRYLETYKAYEQKPADLLMEKLEQDFVSRVTECLTTVKSVNKTDSQTLLTTFGSLEQLIAASREDLALCPGLGPQKARRLFDVLHEPFLKVP
binds: [1] | [2] | [3] | [4]
